Data: patent US20040063910A1
These are yes or no findings as the source states them, for the method shown. Some entries that bind do so weakly or less than the wild type.

Amino acid sequences for entries named in this document (tags omitted). Residues count along the entry.
UniProt P09038, residues 143-288: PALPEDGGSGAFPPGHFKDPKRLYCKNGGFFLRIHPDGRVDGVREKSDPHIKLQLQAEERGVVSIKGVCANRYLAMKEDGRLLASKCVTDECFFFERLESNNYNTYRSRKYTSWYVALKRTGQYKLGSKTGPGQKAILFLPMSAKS
UniProt P11362, residues 22-376: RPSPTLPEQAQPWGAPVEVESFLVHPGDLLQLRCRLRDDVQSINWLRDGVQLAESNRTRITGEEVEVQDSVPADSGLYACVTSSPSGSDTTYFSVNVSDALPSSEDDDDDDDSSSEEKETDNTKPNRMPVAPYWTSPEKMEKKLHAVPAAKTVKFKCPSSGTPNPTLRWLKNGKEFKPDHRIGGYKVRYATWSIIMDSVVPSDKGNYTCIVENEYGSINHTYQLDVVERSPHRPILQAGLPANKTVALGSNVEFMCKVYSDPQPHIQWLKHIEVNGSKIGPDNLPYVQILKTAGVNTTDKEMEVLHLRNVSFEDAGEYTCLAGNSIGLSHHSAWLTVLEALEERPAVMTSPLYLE

Columns and labels:
basic FGF (bFGF) [1] = target: basic FGF (bFGF) (UniProt P09038); assay: competition of 125I-bFGF binding to HEK293 cells overexpressing FGFR1
basic FGF (bFGF) [2] = target: basic FGF (bFGF) (UniProt P09038); assay: competition of 125I-bFGF binding to plate-coated Construct #1

For “FGFR monomer (U.S. Pat. No. 5,229,501) (from UniProt P11362 22-376) (receptor)”, the binding (basic FGF (bFGF) [1]) was “binds” and the binding (basic FGF (bFGF) [2]) was “binds”.
